Measured values: publication PMC8602370
Results are given in words; binding and its absence hold for the method and conditions named. Some results given as binding are weak or reduced against the parent protein; the word gives no strength. Sequences can lack the tags named with a protein. Each block holds one binder with its values, some of them ahead of it.

Chains of the proteins cited; added tags and fusions are not shown.
UniProt P09874: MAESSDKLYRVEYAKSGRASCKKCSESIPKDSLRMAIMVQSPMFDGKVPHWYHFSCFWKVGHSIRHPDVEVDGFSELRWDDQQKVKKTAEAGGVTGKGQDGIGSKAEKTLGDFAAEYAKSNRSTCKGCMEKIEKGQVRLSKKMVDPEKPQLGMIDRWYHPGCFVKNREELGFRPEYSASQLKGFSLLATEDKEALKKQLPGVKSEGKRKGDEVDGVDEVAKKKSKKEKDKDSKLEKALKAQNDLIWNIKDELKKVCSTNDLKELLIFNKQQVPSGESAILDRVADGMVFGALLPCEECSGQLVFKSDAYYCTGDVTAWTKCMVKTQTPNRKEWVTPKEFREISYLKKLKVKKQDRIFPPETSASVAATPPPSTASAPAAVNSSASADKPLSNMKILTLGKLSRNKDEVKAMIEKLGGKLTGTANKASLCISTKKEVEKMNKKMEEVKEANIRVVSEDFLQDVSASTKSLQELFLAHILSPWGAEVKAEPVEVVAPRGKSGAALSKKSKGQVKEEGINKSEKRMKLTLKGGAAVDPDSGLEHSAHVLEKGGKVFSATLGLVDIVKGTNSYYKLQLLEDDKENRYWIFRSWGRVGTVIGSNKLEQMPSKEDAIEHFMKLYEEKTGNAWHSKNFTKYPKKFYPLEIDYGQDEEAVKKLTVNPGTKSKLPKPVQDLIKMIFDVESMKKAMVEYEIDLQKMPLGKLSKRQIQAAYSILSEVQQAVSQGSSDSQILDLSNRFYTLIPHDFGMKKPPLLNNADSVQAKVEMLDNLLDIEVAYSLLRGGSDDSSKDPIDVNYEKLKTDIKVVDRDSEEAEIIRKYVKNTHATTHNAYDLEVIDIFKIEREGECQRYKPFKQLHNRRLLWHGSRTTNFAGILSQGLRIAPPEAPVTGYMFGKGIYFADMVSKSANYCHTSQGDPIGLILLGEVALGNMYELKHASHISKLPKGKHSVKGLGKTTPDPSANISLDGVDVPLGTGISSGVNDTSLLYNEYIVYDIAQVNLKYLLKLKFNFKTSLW

Tests used:
[1] = target: PARP1 (residues 1 to 1014) (UniProt P09874); assay: SPR; biotinylated DNA SSB captured on a streptavidin chip, PARP1 (40 nM) flowed on to form a PARP1/DNA complex, then HPF1 injected without an NAD+ mimic; 25 mM HEPES pH 7.4, 250 mM NaCl, 0.1 mM TCEP, 1 mM EDTA, 0.05% Tween20; both purified
[2] = target: PARP1 (residues 1 to 1014), P09874; assay: HDX-MS; 2.6 µM PARP1 with 5 µM SSB DNA, with or without 2.6 µM HPF1; on-exchange at room temperature in 10 mM HEPES pD 7.0, 150 mM NaCl, 75% D2O, 10 s to 100,000 s; no NAD+ mimic; both purified; details: remark: other sources report otherwise
[3] = target: PARP1 (residues 1 to 1014), P09874; assay: negative-stain EM; PARP1 assembled with SSB DNA (one-nucleotide gap) and EB47, with or without HPF1, at 5 µM in 25 mM Hepes pH 8.0, 150 mM NaCl, 0.1 mM TCEP; uranyl formate stain, 2D class averages; both purified; details: remark: other sources report otherwise
[4] = target: PARP1 (residues 1 to 1014), P09874; assay: SPR; biotinylated DNA SSB captured on a streptavidin chip, PARP1 (40 nM) flowed on to form a PARP1/DNA complex, then HPF1 injected with BAD (300 µM); 25 mM HEPES pH 7.4, 250 mM NaCl, 0.1 mM TCEP, 1 mM EDTA, 0.05% Tween20; both purified; details: remark: other sources report otherwise

- binding [1]: binds weakly
B1: Histone PARylation Factor 1 (HPF1) (protein, UniProt Q9NWY4 1-346)
chain: MVGGGGKRRPGGEGPQCEKTTDVKKSKFCEADVSSDLRKEVENHYKLSLPEDFYHFWKFCEELDPEKPSDSLSASLGLQLVGPYDILAGKHKTKKKSTGLNFNLHWRFYYDPPEFQTIIIGDNKTQYHMGYFRDSPDEFPVYVGINEAKKNCIIVPNGDNVFAAVKLFLTKKLREITDKKKINLLKNIDEKLTEAARELGYSLEQRTVKMKQRDKKVVTKTFHGAGLVVPVDKNDVGYRELPETDADLKRICKTIVEAASDEERLKAFAPIQEMMTFVQFANDECDYGMGLELGMDLFCYGSHYFHKVAGQLLPLAYNLLKRNLFAEIIEEHLANRSQENIDQLAA

- binding [2]: binds
- binding [3]: binds
- binding [4]: binds
B2: Histone PARylation Factor 1 (HPF1), Q9NWY4 1-346 (natural protein)
chain: B1 chain
